The list shows only some results of the screen, not a fair sample: it gathers tests that were run many times, whatever their T/C, doses with no T/C, and many T/C values between a quarter and a half above the control. Further doses and runs are listed elsewhere. T/C: endpoint of the treated group in % of that of the vehicle group. Schedule codes are those of the source, read here as Q, the interval in days (D) or hours (H), X, the number of doses. Some entries were tested several times; their values stand side by side, smallest first. Some values lie below zero, which means that the treated tumours became smaller. Some T/C values are followed by the survivors on the day toxicity was checked, most often the fifth; without a count, all were alive then. Brackets with × stand for listed records that agree. Some entries give survivors of the animals treated and no T/C: the source files T/C as zero there, which appears to mark a toxic dose or a test without result, not a measured value. Survivors were counted at the toxicity check, usually on the fifth day, unless a day is given; later deaths do not show. *1 amine or outer side, *2 acyl side, *3 side chain or, on linkers, in order; H or OH if unused. Where a SMILES comes first, the peptide text is derived from it. Bridges are numbered along the chain shown (N, C = ends). Roman numbers before positions name the chains, in order. [ ]: non-standard residue; d: D form. Actinocin(9to1) = Cc1c2oc3c(C)ccc(C(=O)[*:1])c3nc-2c(C(=O)[*:2])c(N)c1=O; aThr = C[C@H](O)[C@H](N)C(=O)O; NMeV = CN[C@H](C(=O)O)C(C)C; Sar = CNCC(=O)O

The text below walks through data of PubChem BioAssay AID208 (DTP/NCI, 2004).

The test system of the assay is HT29 intrarenal xenograft, nude mice, tumor weight change. The experiment in a line: NCI In Vivo Anticancer Drug Screen. Data for tumor model HT29;CX-1 Human Adenocarcinoma (MER+) (intrarenal inoculation) in NU/NU BALB/C (nude) mice. The note with it: T/C endpoint: mean tumor weight change, higher T/C = larger tumour. On the procedure: The antitumor activity of compounds was measured in mice bearing transplantable tumors. Survival or tumor size were measured and the results are expressed as the measurement made in the treated group (T) divided by the measurement made in the vehicle treated control group (C). The tumor model used in this assay is HT29;CX-1 Human Adenocarcinoma (MER+) (intrarenal inoculation) in NU/NU BALB/C (nude) mice

[1] abbreviates: dose: 400.0 mg/kg/injection, schedule: Q01DX010 (sc), vehicle: Klucel (hydroxypropylcellulose) (HPC).
Where [2] appears, read: dose: 800.0 mg/kg/injection, schedule: Q01DX010 (sc), vehicle: Klucel (hydroxypropylcellulose) (HPC).
The mark [3] stands for this setting: dose: 200.0 mg/kg/injection, schedule: Q01DX010 (sc), vehicle: Klucel (hydroxypropylcellulose) (HPC).
[4] abbreviates: dose: 75.0 mg/kg/injection, schedule: Q04DX004 (sc), vehicle: Klucel (hydroxypropylcellulose) (HPC), evaluated on day 15.

`Cc1cc2cc3cc(C)c(N)cc3nc2cc1N`: the T/C is, setting by setting: (dose: 300.0 mg/kg/injection, schedule: Q04DX004 (sc), vehicle: saline with Tween-80, evaluated on day 15) 127 % of control; (dose: 1200.0 mg/kg/injection, schedule: Q04DX004 (sc), vehicle: saline with Tween-80, evaluated on day 15) 134 % of control.
`CN(Cc1cnc2nc(N)nc(N)c2n1)c1ccc(C(=O)N[C@@H](CCC(=O)O)C(=O)O)cc1`: the T/C by setting is: (dose: 12.0 mg/kg/injection, schedule: Q04DX004 (ip), vehicle: sodium bicarbonate, evaluated on day 15) 38, 57, 64, 70, 103 % of control; (dose: 18.0 mg/kg/injection, schedule: Q04DX004 (ip), vehicle: sodium bicarbonate, evaluated on day 15) 26, 36, 78, 79, 100 % of control; (dose: 27.0 mg/kg/injection, schedule: Q04DX004 (ip), vehicle: sodium bicarbonate, evaluated on day 15) 13, 22, 62, 66, 68 % of control.
As to `CN(C)N=Nc1ccc(S(N)(=O)=O)cc1`, the survivor count under setting [1] was 3 of 6 on day 11 and the survivor count under setting [2] is given as 0 of 6 on day 11.
As to `O=C1C=CC(n2cc(F)c(=O)[nH]c2=O)O1` (configuration not stated), the survivor count (dose: 300.0 mg/kg/injection, schedule: Q04DX004 (sc), vehicle: suspension in saline) was 0 of 4 on day 15.
Turning to `C=C(C)C(=O)O[C@H]1CC2=C[C@@H](C[C@@]3(C)O[C@@H]3[C@H]3OC(=O)C(=C)[C@@H]31)OC2=O`, the survivor count reads like this: (dose: 300.0 mg/kg/injection, schedule: Q04DX004 (sc), vehicle: Klucel (hydroxypropylcellulose) (HPC)) 3 of 6 on day 15; (dose: 600.0 mg/kg/injection, schedule: Q04DX004 (sc), vehicle: Klucel (hydroxypropylcellulose) (HPC)) 2 of 6 on day 15.
`O=[N+]([O-])c1nccn1CC(O)CO` (configuration not stated): the T/C (dose: 600.0 mg/kg/injection, schedule: Q04DX004 (sc), vehicle: saline, evaluated on day 15) is 127 % of control.
For `CN(CO)c1nc(N(C)CO)nc(N(C)CO)n1`, the survivor count (dose: 200.0 mg/kg/injection, schedule: Q01DX010 (sc), vehicle: saline) was 0 of 2 on day 11.
On to `O=C(O)CC(NC(=O)CP(=O)(O)O)C(=O)O` (configuration not stated), for which the survivor count is 1 of 2 on day 11 (dose: 400.0 mg/kg/injection, schedule: Q01DX010 (sc), vehicle: saline) and 0 of 2 on day 11 (dose: 800.0 mg/kg/injection, schedule: Q01DX010 (sc), vehicle: saline).
On to `CCOC(=O)c1ccc(NC(=O)Nc2nncs2)cc1`, for which, for the setting “dose: 400.0 mg/kg/injection, schedule: Q01DX010 (sc), vehicle: distilled water + Tween-80, evaluated on day 11”, the T/C is 140 % of control.
Turning to `Cc1c2oc3c(C)ccc(C(=O)N[C@@H]4C(=O)N[C@H](C(C)C)C(=O)N5CCC[C@H]5C(=O)N(C)CC(=O)N(C)[C@@H](C(C)C)C(=O)O[C@H]4C)c3nc-2c(C(=O)N[C@@H]2C(=O)N[C@H](C(C)C)C(=O)N3CCC[C@H]3C(=O)N(C)CC(=O)N(C)[C@@H](C(C)C)C(=O)O[C@H]2C)c(N)c1=O` (I: [aThr][dV]P[Sar][NMeV] / II: [aThr][dV]P[Sar][NMeV]; ester I:1-I:C, II:1-II:C; linker I:N-II:N via Actinocin(9to1)), the T/C (dose: 0.13 mg/kg/injection, schedule: Q04DX004 (ip), vehicle: saline, evaluated on day 15) is reported as -5, 29, 44, 63, 81 % of control; the T/C (dose: 0.2 mg/kg/injection, schedule: Q04DX004 (ip), vehicle: saline, evaluated on day 15) is on record as 5, 14, 27, 36, 72 % of control; the T/C (dose: 0.3 mg/kg/injection, schedule: Q04DX004 (ip), vehicle: saline, evaluated on day 15) was -26 (2×) and 36 % of control (3×). Besides, the survivor count by setting is: (dose: 0.13 mg/kg/injection, schedule: Q04DX004 (ip), vehicle: saline) 0 of 6 on day 15; (dose: 0.2 mg/kg/injection, schedule: Q04DX004 (ip), vehicle: saline) 0 of 6 on day 15; (dose: 0.3 mg/kg/injection, schedule: Q04DX004 (ip), vehicle: saline) 0 of 6 on day 15.
With `N#CC(=C1SCS1)[N+](=O)[O-]`, the T/C reads like this: (dose: 12.0 mg/kg/injection, schedule: Q04DX004 (sc), vehicle: saline, evaluated on day 15) 138 % of control; (dose: 24.0 mg/kg/injection, schedule: Q04DX004 (sc), vehicle: saline, evaluated on day 15) 134 % of control.
As to `O=C1N[C@@H]2C(=C[C@H](O)[C@@H](O)[C@H]2O)c2cc3c(c(O)c21)OCO3`, the survivor count (dose: 10.0 mg/kg/injection, schedule: Q04DX004 (sc), vehicle: saline with Tween-80) is listed as 1 of 6 on day 15; the survivor count (dose: 20.0 mg/kg/injection, schedule: Q04DX004 (sc), vehicle: saline with Tween-80) is given as 0 of 6 on day 15; the survivor count (dose: 40.0 mg/kg/injection, schedule: Q04DX004 (sc), vehicle: saline with Tween-80) is reported as 0 of 6 on day 15.
Take `C[C@@H]1C[C@H]2[C@@H]3CCC4=CC(=O)C=C[C@]4(C)[C@@]3(F)[C@@H](O)C[C@]2(C)[C@@]1(O)C(=O)CO`: the survivor count is, setting by setting: (dose: 25.0 mg/kg/injection, schedule: Q01DX010 (sc), vehicle: Klucel (hydroxypropylcellulose) (HPC)) 0 of 3 on day 11; (dose: 50.0 mg/kg/injection, schedule: Q01DX010 (sc), vehicle: Klucel (hydroxypropylcellulose) (HPC)) 0 of 3 on day 11; (dose: 100.0 mg/kg/injection, schedule: Q01DX010 (sc), vehicle: Klucel (hydroxypropylcellulose) (HPC)) 0 of 3 on day 11; under setting [3], 0 of 3 on day 11.
Turning to `CO[C@@]12[C@H](COC(N)=O)C3=C(C(=O)C(C)=C(N)C3=O)N1C[C@@H]1N[C@@H]12`, the T/C runs as follows: (dose: 2.0 mg/kg/injection, schedule: Q04DX004 (ip), vehicle: saline, evaluated on day 15) -36, 6, 15, 22 % of control; (dose: 3.0 mg/kg/injection, schedule: Q04DX004 (ip), vehicle: saline, evaluated on day 15) -84, -46, 3 % of control; (dose: 4.5 mg/kg/injection, schedule: Q04DX004 (ip), vehicle: saline, evaluated on day 15) -90 [3 of 4 alive on day 15], -78, -70 [5 of 6 alive on day 15], -2 % of control. Moreover, the survivor count runs as follows: (dose: 6.0 mg/kg/injection, schedule: Q04DX004 (sc), vehicle: saline) 1 of 6 on day 15; (dose: 12.0 mg/kg/injection, schedule: Q04DX004 (sc), vehicle: saline) 0 of 3 on day 15 and 0 of 6 on day 15.
As to `CNC1C(O)C(OC2C(N)CC(N)C(OC3OC(C(C)O)C(O)C(O)C3N)C2O)OCC1(C)O` (configuration not stated), the T/C (dose: 25.0 mg/kg/injection, schedule: Q04DX004 (ip), vehicle: saline, evaluated on day 15) was 133 % of control. Besides, the survivor count by setting is: (dose: 100.0 mg/kg/injection, schedule: Q04DX004 (ip), vehicle: saline) 1 of 6 on day 15; (dose: 200.0 mg/kg/injection, schedule: Q04DX004 (ip), vehicle: saline) 0 of 6 on day 15.
On to `CCCCNCCCNCCCNC(=O)c1csc(-c2csc(CCNC(=O)C(NC(=O)C(C)C(O)C(C)NC(=O)C(NC(=O)c3nc(C(CC(N)=O)NCC(N)C(N)=O)nc(N)c3C)C(OC3OC(CO)C(O)C(O)C3OC3OC(CO)C(O)C(OC(N)=O)C3O)c3cnc[nH]3)C(C)O)n2)n1` (configuration not stated), for which, under “dose: 64.0 mg/kg/injection, schedule: Q01DX010 (sc), vehicle: saline”, the survivor count is on record as 1 of 3 on day 11.
Take `Cn1cnc([N+](=O)[O-])c1S(=O)(=O)NCN1CCOCC1`: the survivor count by setting is: under setting [3], 1 of 3 on day 11; under setting [1], 0 of 3 on day 11; under setting [2], 0 of 3 on day 11.
Consider `CC1CCC(n2cnc3c(Cl)ncnc32)O1` (configuration not stated), for which the T/C under setting [4] is 145 % of control.
For `CC(=O)OCC(=O)[C@@]12OC(C)(C)O[C@@H]1C[C@H]1[C@@H]3CC(C=O)=C4C=C(OCCCl)CC[C@]4(C)[C@@]3(F)[C@@H](O)C[C@@]12C`, the survivor count is 0 of 6 on day 15 (dose: 200.0 mg/kg/injection, schedule: Q04DX004 (sc), vehicle: Klucel (hydroxypropylcellulose) (HPC)) and 0 of 6 on day 15 (dose: 400.0 mg/kg/injection, schedule: Q04DX004 (sc), vehicle: Klucel (hydroxypropylcellulose) (HPC)).
For the molecule `COc1ccc2c(ccc3oc([N+](=O)[O-])cc32)c1`, the T/C is 147 % of control under setting [4] and 127 % of control (dose: 300.0 mg/kg/injection, schedule: Q04DX004 (sc), vehicle: Klucel (hydroxypropylcellulose) (HPC), evaluated on day 15).
